# Measurements taken from PubChem BioAssay AID504444 (National Center for Advancing Translational Sciences (NCATS), 2011).
# In all, about 360,000 compounds went through this assay and about 7,500 (2.1%) were called active. The inconclusive results got no clear call from the source; some entries with a clear call stand among them for comparison. The call rests on the fitted dose curve; in most records, active means well fitted inhibition curve with a large enough effect; inconclusive means small, poorly fitted or top-dose-only effect, or effect the other way; inactive means flat fitted curve, though single readings scatter. Potencies beside an inconclusive call are fits to weak or partial responses and may not hold up.
# Assay: Nrf2 qHTS screen for inhibitors; further: nearly all actives have a fitted effect of over 60% in size
# Conditions: A549 ARE-Fluc reporter, luciferase luminescence, 18-24 h; activity change, negative = inhibition: at 46 µM (top of the series)
# How it was run: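 A549 ARE_Fluc cells (5000/well, 5% FBS OPTI-MEM) pre-incubated 2 h, then treated with compounds 18-24 h at 37C/5% CO2 in concentration-response. CellTiter-Fluor viability read first; BugLite luciferase luminescence after 15 min at room temperature gives Nrf2 activity.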
# On the % scale 0 is the no-effect control and ±100 the full control effect; potency means the concentration at half of the fitted maximal effect.
SMILES,Potency,"activity change, negative = inhibition"
COC(=O)C1=C(c2ccc(F)cc2F)C[C@@H]2CC[C@H]1N2C(=O)N1CCC(C)CC1,"inconclusive: 25.9 µM [falling, partial curve, poor fit]",
CCOC(=O)Cc1c(C)c2c(C)[nH]nc2oc1=O,"inconclusive: 7.31 µM [falling, single point]",
CC12CCC(O)CC1CCC1C2CCC2(C)C(C3=CC(=O)OC3)C(O)CC12O (stereo unspecified),active: 1.84 µM,
CCOc1ccc(CN(CCc2ccc3c(c2)OCO3)Cc2cccc(C)c2)cc1,,inactive: 6.28%
Cc1ccc(NC(=O)c2ncn(CC(=O)NCc3ccc4c(c3)OCO4)n2)cc1C,"inconclusive: 2.59 µM [activator, partial curve]",
Cc1ccc(-n2nc(C)c3c2OC(N)=C(C#N)C3c2ccc(F)cc2)cc1 (stereo unspecified),"inconclusive: 29.1 µM [falling, single point]",
Oc1cccc2cccnc12,,inactive: -7.88%
CCN(CC)C(=O)c1ccc(NC(=O)CCn2nc(-c3ccc(C)cc3)c3ccccc3c2=O)cc1,active: 18.4 µM,
CC(Cc1ccccc1)NC(=O)NC(C)Cc1ccccc1 (stereo unspecified),"inconclusive: 3.66 µM [activator, full curve]",
O=C(c1ccc(Cl)cc1)C1CCCN(Cc2ccc3nonc3c2)C1 (stereo unspecified),"inconclusive: 18.4 µM [falling, partial curve]",
Cc1ccc(NC(=O)c2ccc3snnc3c2)cc1,"inconclusive: 3.26 µM [activator, single point]",
COc1ccc(C(=O)NCCn2cc(SC(C)c3ccccc3)c3ccccc32)cc1OC (stereo unspecified),active: 23.1 µM,
Cc1cc(-c2ccccc2)cc(C)[n+]1Cc1ccccc1,"inconclusive: 11.6 µM [falling, partial curve, poor fit]",
O=S(=O)(NCC(c1cccnc1)N1CCN(c2ccc(F)cc2)CC1)c1ccccc1 (stereo unspecified),"inconclusive: 7.31 µM [falling, partial curve, poor fit]",
COC(=O)C1=C(c2ccc(OCc3ccccc3)cc2)C[C@@H]2CC[C@H]1N2C(=O)NCc1ccc(OC)c(OC)c1,"inconclusive: 29.1 µM [falling, single point]",
CC(C)CCNC(=O)c1c(N)n(CC2CCCO2)c2nc3ccccc3nc12 (stereo unspecified),"inconclusive: 23.1 µM [falling, single point]",
O=S(=O)(c1ccc(Cl)cc1)N1CCN(C2CCN(Cc3ccccc3)CC2)CC1,"inconclusive: 2.59 µM [activator, full curve]",
CC1CCOC(=O)C=CC=CC(=O)OC2CC3OC4C5OC5(C)C(O)CC4(COC(=O)C1O)C2(C)C31CO1 (stereo unspecified),active: 0.517 µM,
O=C1CC(=O)N(c2ccc(Cl)cc2Cl)C(=O)N1,"inconclusive: 20.6 µM [activator, single point]",
Cc1cccc(N(CC(=O)NCCSc2ccc(Cl)cc2)S(=O)(=O)c2ccccc2)c1C,"inconclusive: 18.4 µM [falling, single point]",
CC(C)N1C(=O)CC2(CC[N+](C)(CCOC(=O)C(O)(c3ccccc3)c3ccccc3)CC2)C1=O (stereo unspecified),,inactive: 22%
C=CCn1c(O)c(C(C)=NCc2ccc3c(c2)OCO3)c(=O)[nH]c1=O,active: 20.6 µM,

SMILES,Potency,"activity change, negative = inhibition"
COc1ccc(C(C)=O)cc1CN1CC=C(c2ccccc2)CC1,"inconclusive: 14.6 µM [activator, single point]",
Cc1oc(/N=C/c2ccc3c(c2)OCO3)c(C#N)c1C,"inconclusive: 7.31 µM [activator, single point]",
COc1ccc(Cn2c(N)c(C(=O)NCc3ccco3)c3nc4ccccc4nc32)cc1,"inconclusive: 13 µM [falling, partial curve]",
Cc1c(NS(=O)(=O)c2ccccc2)ccc([N+](=O)[O-])c1Cl,active: 14.6 µM,
Nc1c(C(=O)NCCCc2ccccc2)c2nc3ccccc3nc2n1Cc1cccs1,"inconclusive: 29.1 µM [falling, partial curve, poor fit]",
COC(=O)c1ccc(S(=O)(=O)N2CCCN(Cc3ccccc3)CC2)n1C,"inconclusive: 20.6 µM [falling, single point]",
Clc1ccc(CNCCc2ccc3c(c2)OCO3)cc1,,inactive: -5.94%
Cc1ccc2c(c1)C1CN(C)CCC1N2C(=O)COc1ccc(N(C)C(=O)C(C)(C)C)cc1 (stereo unspecified),"inconclusive: 14.6 µM [falling, single point]",
CCN(CC)c1ccc(NC(=O)c2cccc(C)c2)cc1S(=O)(=O)Nc1ccccc1OC,"inconclusive: 2.91 µM [falling, full curve]",
COC(=O)C1=C(c2cc3ccccc3o2)C[C@@H]2CC[C@H]1N2C(=O)N1CCCC1,"inconclusive: 16.4 µM [falling, single point]",
CN(C)C(=O)Nc1cccc(OC(=O)N(C)C)c1,,inactive: 1.24%
Cc1cccc(-c2noc(-c3ccc4c(c3)OCO4)n2)c1,"inconclusive: 1.03 µM [activator, partial curve]",
COC(=O)C1=C(c2ccc(-c3ccccc3)c(F)c2)C[C@@H]2CC[C@H]1N2C(=O)NCCOc1ccccc1,active: 18.4 µM,
Cc1ccc(OCC(=O)N/N=C\c2ccc(O)c([N+](=O)[O-])c2)c([N+](=O)[O-])c1,"inconclusive: 9.2 µM [falling, partial curve]",
C=CCn1c(O)c(C(C)=Nc2cccc(C(=O)O)c2)c(=O)[nH]c1=O,,inactive: 2.7%
CC(=NNC(=S)N1CC2CCC(CC2)C1)c1nccs1,active: 1.46 µM,
O=C1NC(=O)C(=Cc2ccc(-c3ccc(Cl)cc3)o2)C(=O)N1,"inconclusive: 23.1 µM [activator, single point]",
CCOc1ccc(NC(=O)C2C(C(=O)O)C3(Cl)C(Cl)=C(Cl)C2(Cl)C3(Cl)Cl)cc1 (stereo unspecified),"inconclusive: 29.1 µM [activator, single point]",
O=C(Nc1nc2ccccc2n1CCN1CCCC1)c1ccc(Cl)cc1,"inconclusive: 6.51 µM [activator, single point]",
C=CCN1CCc2cccc3c2[C@H]1Cc1ccc(O)c(O)c1-3,"inconclusive: 18.4 µM [activator, partial curve, poor fit]",
C[N+]1(C)[C@@H]2CC[C@H]1CC(OC(=O)[C@@H](CO)c1ccccc1)C2 (stereo partly specified),,inactive: -9.6%
COC(=O)C1=C(c2cc3ccccc3s2)C[C@@H]2CC[C@H]1N2C(=O)N1CCCC1,"inconclusive: 23.1 µM [falling, single point]",

SMILES,Potency,"activity change, negative = inhibition"
COC1/C=C/C=C(\C)Cc2cc(O)c(Cl)c(c2)N(C)C(=O)CC(OC(=O)C(C)C)C2(C)OC2C(C)C2CC1(O)NC(=O)O2 (stereo unspecified),active: 8.2 µM,
c1ccc(NC2=Nc3ccccc3CC2)cc1,"inconclusive: 23.1 µM [activator, partial curve]",
Cc1cccc(NC(=O)C(C)N2CC=C(c3ccccc3)CC2)c1 (stereo unspecified),"inconclusive: 20.6 µM [activator, partial curve]",
CCCCCCn1c(O)c(C=NCCN2CCOCC2)c(=O)[nH]c1=O,"inconclusive: 16.4 µM [activator, partial curve, poor fit]",
CC1(C)CC[C@]2(C)CC[C@]3(C)C4C[C@@H]5OO[C@@]6(O5)C(CCCC6(C)C)[C@]4(C)CC[C@@]3(C)C2C1 (stereo partly specified),"inconclusive: 5.17 µM [falling, full curve, poor fit]",
CC(=O)Nc1nc(CCl)cs1,"inconclusive: 29.1 µM [activator, partial curve, poor fit]",
CC(c1ccccc1)[n+]1ccccc1 (stereo unspecified),active: 18.4 µM,
O=C1NC(=O)C(=Cc2ccc(-c3ccccc3[N+](=O)[O-])o2)C(=O)N1,,inactive: -6.88%
CC(=O)O[C@@H]1/C=C/[C@](C)(O)C[C@@H](C)C/C=C/[C@H]2[C@H](O)C(C)=C(C)[C@H]3[C@H](Cc4ccccc4)NC(=O)[C@@]123,"inconclusive: 4.11 µM [falling, partial curve, poor fit]",
CC(C)OC1CCCC(O)C1CC(=O)O (stereo unspecified),"inconclusive: 29.1 µM [activator, single point]",
O=C(NN1C(=O)C2C3C=CC(C4CC34)C2C1=O)c1cccc(Br)c1 (stereo unspecified),"inconclusive: 18.4 µM [falling, partial curve]",
CSc1ccc(CN2CCN(C(=O)COc3cccc(C)c3)CC2)cc1,"inconclusive: 16.4 µM [falling, partial curve, poor fit]",
OC[C@H]1O[C@@H](n2cnc3cc(Cl)c(Cl)cc32)[C@H](O)[C@@H]1O,"inconclusive: 18.4 µM [falling, single point]",
NS(=O)(=O)c1ccc(N=Cc2c(O)n(C3CCCCC3)c(=O)n(C3CCCCC3)c2=O)cc1,"inconclusive: 29.1 µM [falling, single point]",
CN(C)c1ccc(C=C(C#N)C#N)cc1,,inactive: 3.3%
CCCCOc1ccc(CN2CCN(CCO)CC2)cc1,"inconclusive: 16.4 µM [activator, single point]",
Cc1cccc(-n2c(/C=C/c3c[nH]c4ccccc34)nc3ccccc3c2=O)c1,,inactive: -16.3%
CCCCC(=O)N/N=C/c1c(O)n(CC)c(=S)[nH]c1=O,,inactive: -7.12%
OC(CC#CCN1CCCCCC1)(c1ccccc1)C1CCCC1 (stereo unspecified),"inconclusive: 4.61 µM [falling, full curve]",
COC(=O)C1=C(c2ccc(-c3ccccc3)c(F)c2)C[C@@H]2CC[C@H]1N2C(=O)NCCOc1ccccc1Cl,active: 16.4 µM,
COP(=O)(OC)c1nc(-c2cccc3ccccc23)oc1NCCc1ccccc1,"inconclusive: 29.1 µM [falling, single point]",
S=P(c1ccccc1)(c1ccccc1)c1c(-c2ccccc2)[nH]c2ccccc12,"inconclusive: 20.6 µM [falling, single point]",

# In a second layout: entries from further up
SMILES	Potency	activity change, negative = inhibition
CC(=O)Nc1nc(CCl)cs1	inconclusive: 29.1 µM [activator, partial curve, poor fit]	
CC(c1ccccc1)[n+]1ccccc1 (stereo unspecified)	active: 18.4 µM	
O=C1NC(=O)C(=Cc2ccc(-c3ccccc3[N+](=O)[O-])o2)C(=O)N1		inactive: -6.88%
CC(=O)O[C@@H]1/C=C/[C@](C)(O)C[C@@H](C)C/C=C/[C@H]2[C@H](O)C(C)=C(C)[C@H]3[C@H](Cc4ccccc4)NC(=O)[C@@]123	inconclusive: 4.11 µM [falling, partial curve, poor fit]	
CC(C)OC1CCCC(O)C1CC(=O)O (stereo unspecified)	inconclusive: 29.1 µM [activator, single point]	
